According to patent US20190328784A1, “CHIMERIC ANTIGEN RECEPTORS (CARS) SPECIFIC FOR MUC1 AND METHODS FOR THEIR USE” (Poseida Therapeutics, Inc., priority 2016, published 2019):
Results are given in words; binding and its absence hold for the method and conditions named. Some entries that bind do so weakly or less than the wild type.

Amino acid sequences for entries named in this document (tags omitted). A change or cut given only in a name is not applied to a line headed by its entry.
UniProt P15941: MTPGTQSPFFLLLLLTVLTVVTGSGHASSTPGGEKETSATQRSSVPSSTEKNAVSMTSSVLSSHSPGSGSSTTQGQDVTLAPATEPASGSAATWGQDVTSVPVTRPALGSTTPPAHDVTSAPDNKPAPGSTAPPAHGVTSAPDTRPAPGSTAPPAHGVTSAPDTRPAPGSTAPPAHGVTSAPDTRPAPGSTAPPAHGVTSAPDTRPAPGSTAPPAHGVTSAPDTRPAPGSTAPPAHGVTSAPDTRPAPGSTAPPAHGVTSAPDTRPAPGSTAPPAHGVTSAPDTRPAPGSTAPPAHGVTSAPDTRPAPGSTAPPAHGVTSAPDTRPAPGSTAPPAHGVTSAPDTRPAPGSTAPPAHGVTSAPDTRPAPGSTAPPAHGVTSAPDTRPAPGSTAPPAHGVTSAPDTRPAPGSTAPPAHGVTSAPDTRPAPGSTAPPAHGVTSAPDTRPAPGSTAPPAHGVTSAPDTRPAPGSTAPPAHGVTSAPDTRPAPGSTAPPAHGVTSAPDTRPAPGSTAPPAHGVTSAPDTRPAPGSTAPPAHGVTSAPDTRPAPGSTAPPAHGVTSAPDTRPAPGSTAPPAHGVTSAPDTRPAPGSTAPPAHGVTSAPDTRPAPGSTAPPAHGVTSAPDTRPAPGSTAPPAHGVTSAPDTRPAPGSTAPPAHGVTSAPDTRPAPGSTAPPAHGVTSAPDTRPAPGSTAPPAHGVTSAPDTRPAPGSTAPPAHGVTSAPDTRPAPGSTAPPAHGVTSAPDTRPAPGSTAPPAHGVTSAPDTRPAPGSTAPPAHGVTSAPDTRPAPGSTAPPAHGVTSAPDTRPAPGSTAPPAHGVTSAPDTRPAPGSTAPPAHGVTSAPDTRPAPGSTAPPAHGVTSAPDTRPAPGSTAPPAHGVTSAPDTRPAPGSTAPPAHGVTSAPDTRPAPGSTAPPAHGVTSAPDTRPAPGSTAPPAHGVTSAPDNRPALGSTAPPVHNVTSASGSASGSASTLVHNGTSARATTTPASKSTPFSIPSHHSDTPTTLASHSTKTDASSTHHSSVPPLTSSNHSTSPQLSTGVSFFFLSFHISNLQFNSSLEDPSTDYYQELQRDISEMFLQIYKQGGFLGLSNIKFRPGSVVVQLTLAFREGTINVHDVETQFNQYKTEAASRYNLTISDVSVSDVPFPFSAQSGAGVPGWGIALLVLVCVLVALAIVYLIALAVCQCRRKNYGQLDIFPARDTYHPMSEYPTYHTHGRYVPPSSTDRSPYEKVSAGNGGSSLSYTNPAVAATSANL

Molecular target: MUC1-C (extracellular MUC1-C construct expressed on cells) (human) (UniProt P15941)
Assay: epitope test by CAR-T degranulation against unmodified and MUC1-transfected cells, FIG. 15

Binder | binding
F1C-HL CAR (MUC1-scFv chimeric antigen receptor) (scFv, not shown: a dimerising Fc or GST) scFv: QITLKESGPGILQPSQTLSLTCSFSGFSLSTSGMGVSWIRQPSGKGLEWLSHIYWDDDKRYNPSLKSRLSISKDTSRNQVFLKITSVDTADTATYYCAPGVSSWFPYWGPGTLVTVSAGGGGSGGGGSGGGGSSIVMTQTPKFLPVSAGDRVTVTCKASQSVGNYVAWYQQKPGQSPKLLIYFASNRYSGVPDRFTGSGSGTDFTFTISSVQVEDLAVYFCQQHYIFPYTFGSGTKLEIK | binds
K2B-HL CAR (MUC1-scFv chimeric antigen receptor) (scFv, not shown: a dimerising Fc or GST) scFv: QVQLKESGPGLVAPSQSLSMTCTVSGFSLTTYGVHWVRQPPGKGLEWLVVIWSDGSTTYNSPLKSRLSISRDNSKSQVFLKMNSLQADDTAIYYCAKNYLGSLDYWGQGTSVTVSSGGGGSGGGGSGGGGSDVVLTQTPLSLPVSLGDQASISCRSSQSLVHNNGDTYLHWYLQKPGQSPKLLIYKVSNRFSGVPDRFSGSGSGTDFTFKISRVEAEDLGVYFCSQTTHVPLTFGAGTKLELK | binds
